Reference: the supplement of paper PMC9578143, “Small-Molecule Ebselen Binds to YTHDF Proteins Interfering with the Recognition of N^6-Methyladenosine-Modified RNAs” (ACS Pharmacology & Translational Science, 2022)
The other results are listed elsewhere or left out. Baselines shift from plate to plate; read single values as rough.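 Hits were defined as a z-score below −3.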

Target: T1, YTHDF1 YTH domain (aa 365-554) (UniProt Q9BYJ9)
T1 sequence (whole entry): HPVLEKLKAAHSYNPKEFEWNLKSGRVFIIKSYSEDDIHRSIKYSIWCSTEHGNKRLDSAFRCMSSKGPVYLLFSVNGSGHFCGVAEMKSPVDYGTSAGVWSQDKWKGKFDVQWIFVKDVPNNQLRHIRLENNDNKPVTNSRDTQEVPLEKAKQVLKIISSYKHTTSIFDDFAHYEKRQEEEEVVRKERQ
Assay: tryptophan fluorescence intensity z-score (mean); higher = higher fluorescence, less quenching (negative = binding / quenching)
Conditions: 10 µM

Tryptophan fluorescence intensity z-score, inactive:
CN[C@@H]1[C@H](O[C@H]2[C@H](O[C@H]3[C@H](O)[C@@H](O)[C@H](N=C(N)N)[C@@H](O)[C@@H]3N=C(N)N)O[C@@H](C)[C@]2(O)C=O)O[C@@H](CO)[C@H](O)[C@H]1O (plate: M 5-6) 0.0615
N=C(N)NC(=N)Nc1ccccc1 (plate: M 23-24) 0.653
COc1ccc2oc(-c3ccccc3OC)cc(=O)c2c1 (plate: M 23-24) -0.205
Fc1ccc(C(c2ccc(F)cc2)N2CCN(C/C=C/c3ccccc3)CC2)cc1 (plate: M 7-8) 0.0504
CCCCC(=O)O[C@H]1CC[C@H]2[C@@H]3CCc4cc(O)ccc4[C@H]3CC[C@]12C (plate: M 3-4) 0.182
CN(N=O)C(=O)N[C@H]1C(O)O[C@H](CO)[C@@H](O)[C@@H]1O (mixture of isomers) (plate: M 5-6) -0.0197
c1ccc2c(Cc3c[nH]c4ccccc34)c[nH]c2c1 (plate: M 23-24) 0.236
CO/N=C(\C(=O)N[C@@H]1C(=O)N2C(C(=O)OCOC(=O)C(C)(C)C)=C(/C=C\c3scnc3C)CS[C@H]12)c1csc(N)n1 (plate: M 11-12) -0.885
CC1=C(CCC(=O)O)c2cc3[nH]c(cc4nc(cc5[nH]c(cc1n2)c(C)c5C(C)O)C(C)=C4C(C)O)c(C)c3CCC(=O)O (stereo unspecified) (plate: M 17-18) -0.726
COc1ccc(CCN(C)CCCC(C#N)(c2ccc(OC)c(OC)c2)C(C)C)cc1OC (stereo unspecified) (plate: M 13-14) 1.18
CCCc1cc(=O)[nH]c(=S)[nH]1 (plate: M 5-6) 0.305
C[C@]12CCC(=O)C=C1CC[C@@H]1[C@@H]2[C@@H](O)C[C@@]2(C)[C@H]1CC[C@]2(O)C(=O)CO (plate: M 1-2) 0.552
CC1(C)C(=O)C=C[C@]2(C)[C@H]3CC[C@@]4(C)[C@H](c5ccoc5)OC(=O)[C@H]5O[C@]54[C@]3(C)C(=O)C[C@@H]12 (plate: M 13-14) 0.373
Oc1ncnc2[nH]ncc12 (plate: M 1-2) 0.331
COc1ccc2c(c1)OC/C(=C\c1ccc(OC)c(O)c1)C2=O (plate: M 15-16) -0.078
C[C@]1(OC(=O)/C=C/c2ccccc2)C[C@@H](O)[C@]2(O)C=CO[C@@H](O[C@@H]3O[C@H](CO)[C@@H](O)[C@H](O)[C@H]3O)[C@@H]21 (plate: M 19-20) 0.641
COc1ccc2c(=O)c(-c3cc4c(cc3OC)OCO4)coc2c1 (plate: M 15-16) 0.717
C[N+]1(C)[C@@H]2CC[C@H]1C[C@@H](OC(=O)C(O)c1ccccc1)C2 (stereo partly specified) (plate: M 3-4) -0.382
COc1ccc2c(c1)OC1(O)COc3cc(OC)c(OC)cc3C1=C2 (stereo unspecified) (plate: M 15-16) -0.146
CN(C)CCC(c1ccc(Cl)cc1)c1ccccn1 (stereo in doubt) (plate: M 1-2) 0.167
CC(=O)Nc1ccccc1 (plate: M 7-8) 0.0168
C=CC(C1=CC(=O)C=CC1=O)c1ccccc1 (stereo unspecified) (plate: M 15-16) -0.352
COC(=O)[C@H](OC(C)=O)[C@H]1C(C)(C)[C@H](OC(C)=O)[C@@H]2CC3=C4CC(=O)O[C@@H](c5ccoc5)[C@]4(C)CC[C@@H]3[C@@]1(C)C2=O (plate: M 13-14) 0.287
Cc1cc(C(C)(C)C)c(O)c(C)c1CC1=NCCN1 (plate: M 3-4) 0.245
CN(C)CCCN1c2ccccc2Sc2ccccc21 (plate: M 5-6) -0.404
CC(C)(C(=O)O)c1ccc(C(O)CCCN2CCC(C(O)(c3ccccc3)c3ccccc3)CC2)cc1 (stereo unspecified) (plate: M 9-10) -0.098
COc1c2ccoc2c(OC)c2oc(=O)ccc12 (plate: M 17-18) 0.239
COc1ccc([C@@H]2CC(=O)c3c(O)cc(O[C@@H]4O[C@H](CO[C@@H]5O[C@@H](C)[C@H](O)[C@@H](O)[C@H]5O)[C@@H](O)[C@H](O)[C@H]4O)cc3O2)cc1O (plate: M 17-18) 0.374
CN(C)/N=N/c1[nH]cnc1C(N)=O (plate: M 1-2) -0.329
C[N+](C)(C)CCCCCC[N+](C)(C)C (plate: M 21-22) 0.125
Cc1cc(O)c(C=O)c2c1C(=O)Oc1c(C)c(O)c3c(c1O2)C(O)OC3=O (stereo unspecified) (plate: M 15-16) -0.354
COc1cc(OC)c(C(C)=O)c(O)c1C (plate: M 15-16) 0.388
Cc1onc(-c2c(Cl)cccc2Cl)c1C(=O)N[C@@H]1C(=O)N2[C@@H]1SC(C)(C)[C@@H]2C(=O)O (plate: M 1-2) 0.412
CCOC(=O)[C@H](CCc1ccccc1)N[C@@H](C)C(=O)N1Cc2ccccc2C[C@H]1C(=O)O (plate: M 7-8) -0.192
O=C(O)c1cccc(O)c1O (plate: M 17-18) 0.34
CC(CCc1ccccc1)NCC(O)c1ccc(O)c(C(N)=O)c1 (stereo unspecified) (plate: M 7-8) -0.387
COc1ccc(C(Cl)=C(c2ccc(OC)cc2)c2ccc(OC)cc2)cc1 (plate: M 1-2) -0.219
CCCCCCc1ccc(O)cc1O.Nc1c2ccccc2nc2ccccc12 (plate: M 9-10) -0.393
COC(=O)Nc1nc2cc(C(=O)c3ccccc3)ccc2[nH]1 (plate: M 7-8) 0.02
CCCCCCCCCc1ccc(OCCOCCOCCOCCOCCOCCOCCOCCOCCO)cc1 (plate: M 9-10) -1.22
NC(=O)c1cc[n+](CC2=C(C(=O)O)N3C(=O)[C@@H](NC(=O)[C@@H](c4ccccc4)S(=O)(=O)[O-])[C@H]3SC2)cc1 (plate: M 7-8) -0.00991

Two compounds drawn at random from those above, as already listed:
Tryptophan fluorescence intensity z-score, inactive:
CC(=O)Nc1ccccc1 (plate: M 7-8) 0.0168
C[N+]1(C)[C@@H]2CC[C@H]1C[C@@H](OC(=O)C(O)c1ccccc1)C2 (stereo partly specified) (plate: M 3-4) -0.382
